± gives the standard deviation of the averaged measurements. Most values lie within the scatter of the assay; repeated measurements hardly agree.

By UniProt entry, the sequences of proteins in these tests, tags left out. Where a name states a change or a piece, a line headed by the entry shows the natural chain unless it says otherwise.
UniProt Q99614: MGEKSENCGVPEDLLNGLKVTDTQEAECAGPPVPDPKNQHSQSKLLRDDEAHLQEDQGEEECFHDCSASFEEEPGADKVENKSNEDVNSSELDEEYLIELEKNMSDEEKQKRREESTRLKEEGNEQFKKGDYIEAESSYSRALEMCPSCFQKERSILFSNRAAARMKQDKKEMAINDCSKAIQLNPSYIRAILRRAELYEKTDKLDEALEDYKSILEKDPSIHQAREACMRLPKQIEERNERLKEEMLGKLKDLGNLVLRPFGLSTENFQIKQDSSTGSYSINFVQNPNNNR
UniProt Q92769, whole entry, looked up: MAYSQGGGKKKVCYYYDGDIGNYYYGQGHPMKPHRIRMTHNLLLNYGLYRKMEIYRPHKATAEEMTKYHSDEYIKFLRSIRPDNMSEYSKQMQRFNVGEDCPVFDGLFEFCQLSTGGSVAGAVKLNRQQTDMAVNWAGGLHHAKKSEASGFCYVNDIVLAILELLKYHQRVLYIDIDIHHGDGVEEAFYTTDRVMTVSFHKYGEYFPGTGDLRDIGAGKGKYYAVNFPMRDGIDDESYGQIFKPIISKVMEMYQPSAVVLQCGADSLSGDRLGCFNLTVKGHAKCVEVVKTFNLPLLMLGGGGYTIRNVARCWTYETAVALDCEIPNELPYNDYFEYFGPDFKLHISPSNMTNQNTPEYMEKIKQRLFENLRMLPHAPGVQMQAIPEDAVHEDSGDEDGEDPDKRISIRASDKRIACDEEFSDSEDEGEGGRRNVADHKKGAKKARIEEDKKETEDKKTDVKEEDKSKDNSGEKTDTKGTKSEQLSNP
UniProt O43159: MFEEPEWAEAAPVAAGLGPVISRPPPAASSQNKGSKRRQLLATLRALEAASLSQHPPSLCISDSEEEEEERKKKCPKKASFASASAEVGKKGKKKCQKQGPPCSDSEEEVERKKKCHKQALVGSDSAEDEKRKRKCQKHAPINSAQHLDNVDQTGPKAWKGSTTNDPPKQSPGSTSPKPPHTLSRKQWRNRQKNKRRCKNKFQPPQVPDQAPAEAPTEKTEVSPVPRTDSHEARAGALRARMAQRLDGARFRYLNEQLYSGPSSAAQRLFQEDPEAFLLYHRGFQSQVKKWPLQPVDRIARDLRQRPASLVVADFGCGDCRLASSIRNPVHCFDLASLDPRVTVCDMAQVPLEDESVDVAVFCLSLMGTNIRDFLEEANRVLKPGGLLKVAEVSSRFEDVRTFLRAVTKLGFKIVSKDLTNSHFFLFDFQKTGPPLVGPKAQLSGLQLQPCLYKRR
UniProt Q641Q2, whole entry, looked up: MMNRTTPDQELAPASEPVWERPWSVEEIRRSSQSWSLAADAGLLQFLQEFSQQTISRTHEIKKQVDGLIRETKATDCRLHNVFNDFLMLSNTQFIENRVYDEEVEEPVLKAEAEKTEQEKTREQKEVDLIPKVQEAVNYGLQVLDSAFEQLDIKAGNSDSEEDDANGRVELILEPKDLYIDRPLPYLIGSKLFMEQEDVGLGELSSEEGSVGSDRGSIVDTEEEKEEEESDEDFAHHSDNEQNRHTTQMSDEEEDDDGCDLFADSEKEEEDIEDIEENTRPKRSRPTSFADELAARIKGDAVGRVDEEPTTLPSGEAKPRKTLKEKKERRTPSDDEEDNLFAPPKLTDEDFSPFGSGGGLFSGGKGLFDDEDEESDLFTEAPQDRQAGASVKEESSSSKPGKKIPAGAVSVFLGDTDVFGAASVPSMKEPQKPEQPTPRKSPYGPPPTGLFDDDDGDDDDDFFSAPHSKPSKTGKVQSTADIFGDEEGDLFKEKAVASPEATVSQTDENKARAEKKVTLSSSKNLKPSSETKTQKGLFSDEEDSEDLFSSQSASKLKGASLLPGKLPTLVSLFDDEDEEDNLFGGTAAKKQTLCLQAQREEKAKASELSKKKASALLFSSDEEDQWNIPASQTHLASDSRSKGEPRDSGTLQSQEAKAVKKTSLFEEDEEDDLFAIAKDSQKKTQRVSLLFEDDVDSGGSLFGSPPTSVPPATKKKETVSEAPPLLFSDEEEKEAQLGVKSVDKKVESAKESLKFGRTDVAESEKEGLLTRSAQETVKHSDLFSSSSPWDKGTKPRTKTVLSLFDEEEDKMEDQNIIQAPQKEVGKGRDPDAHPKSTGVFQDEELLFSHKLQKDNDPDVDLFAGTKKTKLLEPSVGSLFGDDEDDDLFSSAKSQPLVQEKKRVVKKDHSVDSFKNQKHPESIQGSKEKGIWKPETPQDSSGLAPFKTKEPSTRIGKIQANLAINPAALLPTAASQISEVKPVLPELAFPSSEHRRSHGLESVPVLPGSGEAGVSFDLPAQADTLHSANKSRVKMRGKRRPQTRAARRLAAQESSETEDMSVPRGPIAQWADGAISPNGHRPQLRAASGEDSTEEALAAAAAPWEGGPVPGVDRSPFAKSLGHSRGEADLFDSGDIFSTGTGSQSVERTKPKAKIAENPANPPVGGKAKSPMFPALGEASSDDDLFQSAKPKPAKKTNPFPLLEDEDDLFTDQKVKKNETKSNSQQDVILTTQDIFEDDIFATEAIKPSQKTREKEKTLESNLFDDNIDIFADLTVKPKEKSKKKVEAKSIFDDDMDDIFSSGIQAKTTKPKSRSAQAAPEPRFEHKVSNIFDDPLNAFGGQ
UniProt P46821: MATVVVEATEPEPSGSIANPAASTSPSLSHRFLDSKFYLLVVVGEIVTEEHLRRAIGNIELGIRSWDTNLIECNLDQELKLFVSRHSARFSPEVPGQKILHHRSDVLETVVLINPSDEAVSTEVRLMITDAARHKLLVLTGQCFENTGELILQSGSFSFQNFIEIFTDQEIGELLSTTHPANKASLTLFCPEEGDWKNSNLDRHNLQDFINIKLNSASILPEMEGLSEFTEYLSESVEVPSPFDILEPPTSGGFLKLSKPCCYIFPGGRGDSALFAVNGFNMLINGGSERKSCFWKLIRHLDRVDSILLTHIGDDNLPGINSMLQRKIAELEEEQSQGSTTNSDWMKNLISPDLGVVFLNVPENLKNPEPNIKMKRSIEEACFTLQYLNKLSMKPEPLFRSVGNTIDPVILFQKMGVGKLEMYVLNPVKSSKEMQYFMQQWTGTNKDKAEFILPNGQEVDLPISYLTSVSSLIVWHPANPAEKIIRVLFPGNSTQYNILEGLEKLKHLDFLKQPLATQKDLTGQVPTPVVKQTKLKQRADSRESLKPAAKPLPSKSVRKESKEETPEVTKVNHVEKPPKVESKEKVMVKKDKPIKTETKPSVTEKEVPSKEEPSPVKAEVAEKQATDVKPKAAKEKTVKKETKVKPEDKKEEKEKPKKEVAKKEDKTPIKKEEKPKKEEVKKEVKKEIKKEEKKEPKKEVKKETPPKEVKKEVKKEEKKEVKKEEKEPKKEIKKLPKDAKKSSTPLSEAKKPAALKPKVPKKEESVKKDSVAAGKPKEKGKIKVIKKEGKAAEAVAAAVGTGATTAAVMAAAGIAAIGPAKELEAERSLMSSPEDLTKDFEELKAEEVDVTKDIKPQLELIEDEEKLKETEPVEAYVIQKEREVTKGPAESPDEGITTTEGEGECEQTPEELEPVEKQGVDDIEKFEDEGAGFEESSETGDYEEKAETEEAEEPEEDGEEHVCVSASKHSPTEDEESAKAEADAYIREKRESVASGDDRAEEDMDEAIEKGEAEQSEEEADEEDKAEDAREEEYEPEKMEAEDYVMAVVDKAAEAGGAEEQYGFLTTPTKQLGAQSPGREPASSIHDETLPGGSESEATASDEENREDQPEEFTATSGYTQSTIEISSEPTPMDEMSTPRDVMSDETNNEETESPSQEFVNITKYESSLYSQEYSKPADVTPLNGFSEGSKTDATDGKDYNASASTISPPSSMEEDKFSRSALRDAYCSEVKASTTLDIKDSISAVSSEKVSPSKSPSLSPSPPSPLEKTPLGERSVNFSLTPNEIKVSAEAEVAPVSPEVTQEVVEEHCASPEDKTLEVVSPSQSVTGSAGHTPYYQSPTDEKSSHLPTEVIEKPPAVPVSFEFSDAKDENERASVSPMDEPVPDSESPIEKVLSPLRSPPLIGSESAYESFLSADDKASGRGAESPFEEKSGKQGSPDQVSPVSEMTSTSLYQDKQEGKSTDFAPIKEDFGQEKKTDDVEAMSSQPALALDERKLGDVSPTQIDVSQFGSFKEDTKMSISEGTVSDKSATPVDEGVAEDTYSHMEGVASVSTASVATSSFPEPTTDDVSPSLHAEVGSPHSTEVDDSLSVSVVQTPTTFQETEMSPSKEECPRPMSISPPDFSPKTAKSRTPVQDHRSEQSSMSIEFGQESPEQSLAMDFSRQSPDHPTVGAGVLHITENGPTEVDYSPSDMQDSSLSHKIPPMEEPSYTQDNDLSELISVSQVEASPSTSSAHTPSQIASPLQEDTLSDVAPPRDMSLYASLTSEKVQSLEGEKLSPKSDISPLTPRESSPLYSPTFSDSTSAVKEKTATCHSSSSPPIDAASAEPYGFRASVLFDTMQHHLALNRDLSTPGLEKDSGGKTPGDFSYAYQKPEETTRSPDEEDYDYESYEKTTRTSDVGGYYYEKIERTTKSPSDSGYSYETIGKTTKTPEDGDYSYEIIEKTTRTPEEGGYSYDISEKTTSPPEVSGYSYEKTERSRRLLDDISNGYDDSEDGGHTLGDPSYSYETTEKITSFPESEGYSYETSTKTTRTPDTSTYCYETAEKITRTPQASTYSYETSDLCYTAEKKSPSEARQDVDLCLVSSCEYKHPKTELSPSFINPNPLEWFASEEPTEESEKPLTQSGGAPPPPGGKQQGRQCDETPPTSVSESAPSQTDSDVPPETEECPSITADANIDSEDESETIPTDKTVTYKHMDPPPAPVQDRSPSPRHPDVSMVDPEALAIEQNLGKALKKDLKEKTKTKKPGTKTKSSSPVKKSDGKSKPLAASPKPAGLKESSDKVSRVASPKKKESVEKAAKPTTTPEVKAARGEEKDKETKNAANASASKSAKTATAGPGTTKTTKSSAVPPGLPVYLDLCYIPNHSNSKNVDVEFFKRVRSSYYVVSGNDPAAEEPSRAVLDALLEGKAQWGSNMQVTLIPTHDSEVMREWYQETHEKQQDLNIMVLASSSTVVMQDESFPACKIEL
UniProt Q9Y4E8: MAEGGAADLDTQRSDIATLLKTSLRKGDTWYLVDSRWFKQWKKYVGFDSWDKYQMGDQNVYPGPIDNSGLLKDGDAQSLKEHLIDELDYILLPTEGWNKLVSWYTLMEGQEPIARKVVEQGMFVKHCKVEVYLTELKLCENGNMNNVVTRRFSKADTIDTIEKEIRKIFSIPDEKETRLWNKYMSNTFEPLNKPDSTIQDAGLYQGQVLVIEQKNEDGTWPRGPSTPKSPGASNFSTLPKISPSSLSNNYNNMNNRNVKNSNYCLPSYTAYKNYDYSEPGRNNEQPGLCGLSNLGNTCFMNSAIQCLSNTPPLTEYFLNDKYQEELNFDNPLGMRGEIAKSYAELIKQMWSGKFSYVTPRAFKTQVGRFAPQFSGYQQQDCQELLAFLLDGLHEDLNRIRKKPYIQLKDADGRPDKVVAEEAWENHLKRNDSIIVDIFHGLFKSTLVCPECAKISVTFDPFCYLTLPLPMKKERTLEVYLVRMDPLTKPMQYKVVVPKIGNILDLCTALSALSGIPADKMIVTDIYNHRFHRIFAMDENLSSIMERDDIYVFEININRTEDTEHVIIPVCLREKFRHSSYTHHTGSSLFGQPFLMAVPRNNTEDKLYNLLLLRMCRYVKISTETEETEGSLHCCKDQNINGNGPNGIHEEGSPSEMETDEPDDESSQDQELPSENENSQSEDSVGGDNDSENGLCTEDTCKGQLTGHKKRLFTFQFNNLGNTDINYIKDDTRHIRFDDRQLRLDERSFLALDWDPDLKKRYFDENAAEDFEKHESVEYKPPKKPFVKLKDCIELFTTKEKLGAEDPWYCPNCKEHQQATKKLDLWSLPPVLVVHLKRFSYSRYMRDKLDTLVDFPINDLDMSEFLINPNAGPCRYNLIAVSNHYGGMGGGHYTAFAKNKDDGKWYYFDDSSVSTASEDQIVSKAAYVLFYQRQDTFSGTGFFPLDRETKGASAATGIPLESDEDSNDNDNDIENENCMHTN
UniProt Q01518, whole entry, looked up: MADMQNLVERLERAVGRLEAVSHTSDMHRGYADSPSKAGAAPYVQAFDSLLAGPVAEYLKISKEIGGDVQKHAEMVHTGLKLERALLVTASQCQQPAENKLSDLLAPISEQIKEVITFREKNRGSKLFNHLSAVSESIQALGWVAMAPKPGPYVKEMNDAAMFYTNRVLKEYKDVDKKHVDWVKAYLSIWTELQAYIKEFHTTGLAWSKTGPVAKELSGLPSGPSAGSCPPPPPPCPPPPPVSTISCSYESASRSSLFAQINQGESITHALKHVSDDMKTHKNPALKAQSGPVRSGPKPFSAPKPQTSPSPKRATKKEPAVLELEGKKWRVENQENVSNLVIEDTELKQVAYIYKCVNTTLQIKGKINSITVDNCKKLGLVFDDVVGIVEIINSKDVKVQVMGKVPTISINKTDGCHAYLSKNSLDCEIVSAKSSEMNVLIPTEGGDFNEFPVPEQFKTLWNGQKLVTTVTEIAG

Compound in this experiment: CC[C@@H](C)Nc1cc(C(=O)N[C@H]2C[C@H]3CC[C@@H](C2)N3c2ccc(C(=O)C3CC3)cn2)c(C)cc1C(N)=O [XL888]
Put plainly: phosphopeptide melting temperature shift (XL888 minus DMSO); higher = stabilised by drug treatment. As to conditions: 100 µM; treatment time 2 h; layout: intact cells; SK-Mel 28. How it is done: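 Phospho-TPP in intact SK-Mel 28 cells treated with 100 uM XL888 or DMSO for 2 h, heated at 10 temperatures (37-67 C) for 3 min, soluble fraction TMT10plex-labelled and TiO2 phospho-enriched. Melting curves were fitted per phosphopeptide; the value is the melting point difference (drug minus vehicle) in each of two biological replicates.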
As for “UniProt Q96GP6-2_phosphosite_648 (phosphosite position: 648)”, the “phosphopeptide melting temperature shift” value stood at 0.486 °C.
With “TTC1 phosphosite_83 (phosphosite position: 83) (UniProt Q99614)”, the “phosphopeptide melting temperature shift” value is -4.25 °C.
The value for “UniProt Q8TAP6-2_phosphosite_83 (phosphosite position: 83)” was -0.217 °C; that for “UniProt Q8NFC6_phosphosite_2780 (phosphosite position: 2780)” was 2.04 °C.
The value for “RPS3A phosphosite_238 (phosphosite position: 238) (UniProt P61247)” was -0.706 °C; that for “GPHN phosphosite_194 (phosphosite position: 194) (UniProt Q9NQX3)” was 0.416 ± 2.8 °C; that for “TNS1 phosphosite_963 (phosphosite position: 963) (UniProt Q9HBL0)” was -0.273 °C.
The value for “UniProt Q15637-4_phosphosite_80 (phosphosite position: 80)” was -1.48 ± 0.59 °C; that for “AHNAK phosphosite_93 (phosphosite position: 93) (UniProt Q09666)” was 0.355 °C.
For the target “SRRM1 phosphosite_572 (phosphosite position: 572) (UniProt Q8IYB3)”, the “phosphopeptide melting temperature shift” value is -7.05 ± 5.4 °C.
For “UniProt P46100-2_phosphosite_394 (phosphosite position: 394)” the value was 0.678 °C; for “UniProt O95359-2_phosphosite_21 (phosphosite position: 21)”, 1.69 °C; for “UniProt P36507_phosphosite_295 (phosphosite position: 295)”, -2.73 °C.
The value for “UniProt P49815-7_phosphosite_1296 (phosphosite position: 1296)” was 0.598 °C.
The value for “UniProt P62753_phosphosite_240 (phosphosite position: 240)” was -1.37 °C.
As for “EIF2S2 phosphosite_31 (phosphosite position: 31) (UniProt P20042)”, the “phosphopeptide melting temperature shift” value worked out at 1.5 °C.
The value for “PRKAB1 phosphosite_108 (phosphosite position: 108) (UniProt Q9Y478)” was -1.36 ± 1.1 °C; that for “UniProt Q01484-5_phosphosite_10 (phosphosite position: 10)” was -0.163 °C.
The value for “UniProt Q96JM3_phosphosite_452 (phosphosite position: 452)” was 3.91 °C; that for “IWS1 phosphosite_27 (phosphosite position: 27) (UniProt Q96ST2)” was 2.39 °C; that for “UniProt Q08117_phosphosite_196 (phosphosite position: 196)” was 1.76 ± 0.92 °C.
Consider “ILF3 phosphosite_477 (phosphosite position: 477) (UniProt Q12906)”, for which the “phosphopeptide melting temperature shift” value is -0.189 ± 0.88 °C.
Regarding “UniProt Q86YS7_phosphosite_659 (phosphosite position: 659)”, the “phosphopeptide melting temperature shift” value was -0.132 °C.
“UniProt Q92769-3_phosphosite_392 (phosphosite position: 392)”: the “phosphopeptide melting temperature shift” value came out at 1.94 °C.
The value for “UniProt Q9BZQ8_phosphosite_622 (phosphosite position: 622)” was 1.61 ± 1.1 °C.
The value for “RBM12 phosphosite_422 (phosphosite position: 422) (UniProt Q9NTZ6)” was 0.651 ± 0.3 °C; that for “UniProt O94880_phosphosite_208 (phosphosite position: 208)” was -1.18 °C; that for “UniProt Q9UEY8-2_phosphosite_649 (phosphosite position: 649)” was 1.63 ± 1.9 °C.
Regarding “UniProt Q9UET6-2_phosphosite_269 (phosphosite position: 269)”, the “phosphopeptide melting temperature shift” value is 0.348 ± 0.94 °C.
“SNRNP200 phosphosite_225 (phosphosite position: 225) (UniProt O75643)”: the “phosphopeptide melting temperature shift” value came to 0.297 °C.
The value for “THOC5 phosphosite_314 (phosphosite position: 314) (UniProt Q13769)” was 0.698 ± 0.51 °C; that for “UniProt O43237-2_phosphosite_117 (phosphosite position: 117)” was 0.622 ± 0.34 °C; that for “UniProt Q6ICG6-3_phosphosite_270 (phosphosite position: 270)” was 0.598 ± 1.6 °C.
For “UniProt Q8N9B5-2_phosphosite_713 (phosphosite position: 713)” the value was 0.686 ± 1.2 °C; for “UniProt Q86VR2-2_phosphosite_65 (phosphosite position: 65)”, 2.14 ± 1.5 °C.
For “WDR11 phosphosite_209 (phosphosite position: 209) (UniProt Q9BZH6)” the value was 1.19 ± 1.3 °C; for “MYO18A phosphosite_2007 (phosphosite position: 2007) (UniProt Q92614)”, -0.389 °C.
On to “UniProt Q15149_phosphosite_125 (phosphosite position: 125)”, for which the “phosphopeptide melting temperature shift” value was 2.87 °C.
For the target “ATM phosphosite_1881 (phosphosite position: 1881) (UniProt Q13315)”, the “phosphopeptide melting temperature shift” value stood at 0.808 °C.
The value for “REEP3 phosphosite_210 (phosphosite position: 210) (UniProt Q6NUK4)” was -0.326 °C; that for “SOD1 phosphosite_99 (phosphosite position: 99) (UniProt P00441)” was 0.501 ± 0.64 °C.
The value for “UniProt O43159_phosphosite_64 (phosphosite position: 64)” was 0.628 ± 5.8 °C.
For “GTF2F1 phosphosite_218 (phosphosite position: 218) (UniProt P35269)” the value was 2.74 °C; for “UniProt P85037-2_phosphosite_273 (phosphosite position: 273)”, 1.06 ± 0.68 °C; for “EIF5B phosphosite_137 (phosphosite position: 137) (UniProt O60841)”, 0.297 ± 0.16 °C.
As to “UniProt Q8N122-3_phosphosite_719 (phosphosite position: 719)”, the “phosphopeptide melting temperature shift” value is 1.18 ± 2.1 °C.
The value for “ARHGAP21 phosphosite_1503 (phosphosite position: 1503) (UniProt Q5T5U3)” was 2.72 °C; that for “UniProt Q07866-6_phosphosite_524 (phosphosite position: 524)” was -0.47 °C.
For “UniProt Q6P1L5-2_phosphosite_136 (phosphosite position: 136)” the value was -1.47 °C; for “UniProt A3KN83-3_phosphosite_690 (phosphosite position: 690)”, 1.86 ± 1.5 °C.
As for “UniProt Q641Q2-2_phosphosite_352 (phosphosite position: 352)”, the “phosphopeptide melting temperature shift” value was 2.27 °C.
For “MAP1B phosphosite_1438 (phosphosite position: 1438) (UniProt P46821)” the value was 0.016 ± 0.35 °C.
The value for “UniProt Q8NC51-3_phosphosite_237 (phosphosite position: 237)” was 2.29 ± 1.3 °C.
The value for “LARP1 phosphosite_631 (phosphosite position: 631) (UniProt Q6PKG0)” was 0.727 ± 0.022 °C; that for “USP15 phosphosite_229 (phosphosite position: 229) (UniProt Q9Y4E8)” was 2.08 °C.
As to “PRKAB2 phosphosite_108 (phosphosite position: 108) (UniProt O43741)”, the “phosphopeptide melting temperature shift” value is -0.325 ± 0.86 °C.
As for “UniProt Q9BUH6_phosphosite_148 (phosphosite position: 148)”, the “phosphopeptide melting temperature shift” value was -1.24 °C.
For “ACTG1 phosphosite_233 (phosphosite position: 233) (UniProt P63261)” the value was 0.604 °C.
“SRRM2 phosphosite_1103 (phosphosite position: 1103) (UniProt Q9UQ35)”: the “phosphopeptide melting temperature shift” value came out at 2.08 °C.
The value for “RAD9A phosphosite_387 (phosphosite position: 387) (UniProt Q99638)” was 3.47 °C; that for “SUDS3 phosphosite_237 (phosphosite position: 237) (UniProt Q9H7L9)” was 1.72 ± 2.7 °C; that for “UniProt Q9UPP1-5_phosphosite_804 (phosphosite position: 804)” was 2.41 °C.
For “UniProt Q9Y618-5_phosphosite_152 (phosphosite position: 152)” the value was 2.59 ± 2.1 °C.
Take “UniProt Q01518-2_phosphosite_309 (phosphosite position: 309)”: the “phosphopeptide melting temperature shift” value amounted to 0.00411 ± 0.49 °C.
As to “UniProt Q14676-3_phosphosite_455 (phosphosite position: 455)”, the “phosphopeptide melting temperature shift” value turned out to be 4.53 ± 0.51 °C.
The value for “UniProt Q9UGR2-2_phosphosite_217 (phosphosite position: 217)” was -1.94 ± 3.2 °C; that for “IARS phosphosite_1047 (phosphosite position: 1047) (UniProt P41252)” was 1.64 °C.
